Results taken from PubChem BioAssay AID1458 (National Center for Advancing Translational Sciences (NCATS), 2008).
In all, about 210,000 compounds went through this assay and about 5,900 (2.8%) were called active. Roughly 5% stayed inconclusive and do not appear here. Calls follow the shape of the dose curve; as a rule, active = well fitted activation curve with a large enough effect; inconclusive = small, poorly fitted or top-dose-only effect; inactive = no such curve, though single readings can be large or run the other way. This is a selection; strong and weak results do not stand in their true shares. Where no call is shown, the source filed none.

Assay: qHTS Assay for Enhancers of SMN2 Splice Variant Expression; also: nearly all actives have a fitted effect of over 55% in size; as to activity change, positive = activation: % of control where 0% means no effect
Settings: HEK293 SMN2-luciferase splicing reporter, luminescence, 30-36 h; activity change, positive = activation: at 46.1 µM (top of the series) unless noted
In short: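 qHTS luciferase splicing reporter: luminescence rises when SMN2 exon 7 is included in transfected HEK293 cells. Compound exposure lasted 30-36 h at 37C, with 4.5 mM final sodium butyrate as control, followed by a ONE-Glo read.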
Potency is read from the fitted curve at half-maximal effect.

| SMILES | activity change, positive = activation | Potency |
| --- | --- | --- |
| CCOC(=O)c1cn(CC)c2cc(N3CCSCC3)c(F)cc2c1=O | 51.8% |  |
| Cc1c(C(=O)N2CCCC2)sc(NC(=O)c2cccs2)c1C#N | 44.6% |  |
| Cc1cc(C)n(CCC(=O)N/N=C/c2ccccc2O)n1 | -94% |  |
| O=C1CN(c2ccccc2F)C(=O)CN1c1ccccc1F | 29.2% |  |
| Cc1ccc(-c2nnc(Nc3ccc(OCC(N)=O)cc3)c3ccccc23)cc1S(=O)(=O)N(C)C | inactive: -42.4% |  |
| CN(C)S(=O)(=O)c1cccc(N=C2NN=C(c3ccccc3)CS2)c1 | inactive: -57.7% |  |
| CCOc1ccc2nc(NCCNC(=O)C(C)C)c(C)cc2c1 | 17.5% |  |
| C=CCN(C(=O)CNC(=O)c1ccco1)C(C(=O)NC1CCCCC1)c1ccccc1 (stereo not given) | 51.2% |  |
| CN(C)S(=O)(=O)c1cccc(NC(=S)NCc2ccco2)c1 | 63% |  |
| O=C(Nc1ccc2oc(-c3ccccc3)nc2c1)c1ccncc1 | inactive: -60.8% |  |
| O=C(Nc1ccccc1)Nc1nnc(CSCc2ccccc2Cl)s1 | inactive: -75.7% |  |
| CN1CCN(C(=S)c2cn(Cc3cccc(F)c3)c3ccccc23)CC1 | 47.5% |  |
| O=C(Nc1cccc(Cl)c1)Nc1nnc(CSCCOc2ccc(Cl)cc2)s1 | -62.5% |  |
| COc1cccc(OCc2nc3ccccc3n2C)c1 |  | active: 15.8 µM |
| N#Cc1c(NC(=O)C2CCCO2)sc2c1CCCCC2 (stereo not given) |  | active: 6.31 µM |
| O=c1oc(-c2cccs2)nc2sc3c(c12)CCCCC3 |  | active: 15.8 µM |
| O=C(N/N=C1\C/C(=N\NC(=O)c2ccncc2)c2ccccc21)c1ccncc1 | 32.1% |  |
| Cc1c(NC(=O)c2cc3c(s2)-c2ccccc2OC3)cccc1[N+](=O)[O-] | -41.5% |  |
| Cc1cccc(OCC(O)CN2CC3(C)CC2CC(C)(C)C3)c1 (stereo not given) | 8.32% |  |
| COc1ccc(CCN2CC(C(=O)NCCc3ccccc3)CC2=O)cc1OC (stereo not given) | 102% |  |
| Cc1cccc(N2C(=O)CC(N3CCOCC3)C2=O)c1 (stereo not given) | 69.7% |  |
| Cc1nnc2sc(-c3cccc(NC(=O)c4cccnc4)c3)nn12 | 24.1% |  |

| SMILES | activity change, positive = activation | Potency |
| --- | --- | --- |
| CCOc1cc(C(=O)CSc2nnc(CNc3ccc(Cl)cc3)o2)ccc1NC(=O)CC | -68.4% |  |
| CC(C)(C)c1ccc(OCc2nc(-c3ccccn3)no2)c(Br)c1 |  | active: 12.6 µM |
| COc1ccc(CNC(=O)C(C)OC(=O)C23CC4CC(CC(O)(C4)C2)C3)cc1 (stereo not given) | -31.1% |  |
| COc1ccc(Cl)cc1NC(=O)NC(C)c1ccncc1 (stereo not given) | 39.1% |  |
| O=C(c1ccc(Br)s1)N1CCCC1 | 22.1% |  |
| COC(=O)c1cc(Br)c(=O)n(CC(C)C)c1 | 30.5% |  |
| Cc1ccc(-c2n[nH]c(=S)n2/N=C/c2ccc(C)s2)cc1 | -24.4% |  |
| O=C(CN1C(=O)c2ccccc2S1(=O)=O)NCc1ccccn1 | 42.9% |  |
| Nc1nc(Nc2ccccc2F)sc1C(=O)c1ccc(Cl)cc1 |  | active: 14.1 µM |
| CCOC(=O)N1CCN(C(=O)CS(=O)(=O)c2cn(Cc3ccc(Cl)cc3)c3ccccc23)CC1 | inactive: -61.1% |  |
| Cc1c(Cl)cccc1NC(=O)CN1CCN(CCN=CC2=C(O)CC(c3ccccc3)CC2=O)CC1 (stereo not given) | inactive: -46% |  |
| CCCS(=O)(=O)c1nc(S(=O)(=O)c2ccc(C)cc2)c(N2CCCC2)s1 | 56.8% |  |
| CSc1ccc(-c2ccco2)nn1 | 82% |  |
| Cc1cncn1CCc1nc2c3ccccc3nc(SCC(=O)Nc3cccc(Cl)c3)n2n1 | -55% |  |
| Cc1cccc(N2CCN(C(=O)CCc3c(C)nc4ncnn4c3C)CC2)c1C | inactive: -31.8% |  |
| CCOC(=O)c1ccccc1OCc1cc(/C=N/n2cnnc2)ccc1OC | 17.9% |  |
| C=CCOC(=O)C1=C(C)N=C2SCCC(=O)N2C1c1cccs1 (stereo not given) | 31% |  |
| CC(C)(C)C(=O)NCCc1nc2ccccc2n1CCCCOc1ccc(Cl)cc1 | inactive: -34.7% |  |
| CCC1(C)OC(=O)NN(c2ccc(C)cc2)C1(C)O (stereo not given) | 19.2% |  |
| CCOC(=O)C1CCN(C(=O)C2CCN(c3nc4ccc(OC)cc4s3)CC2)CC1 | inactive: -45.2% |  |
| O=C(O)c1ccc(NCc2cccnc2)cc1 | 35.7% |  |
| Cc1cccc(Sc2c([N+](=O)[O-])ncn2C)c1 | -54.9% |  |

| SMILES | activity change, positive = activation | Potency |
| --- | --- | --- |
| O=[N+]([O-])c1ccc(N2CCN(CCOc3nonc3-c3ccccc3)CC2)c(Cl)c1 | inactive: -47.7% |  |
| CC(C)=CC(=O)Nc1ccc(Br)cc1 |  | active: 12.6 µM |
| Cc1nc2ccccc2n1CC(=O)NCc1ccccc1 | -71.8% |  |
| Nc1c(C(=O)OCC2CCCO2)c2nc3ccccc3nc2n1-c1ccc2c(c1)OCCO2 (stereo not given) | -50.9% |  |
| c1ccc(-c2nc3ccccn3c2NCc2ccc3c(c2)OCO3)cc1 | inactive: -34.6% |  |
| Cc1ccc(-c2cc(C(=O)N/N=C/C=C/c3ccccc3)n[nH]2)s1 | inactive: -30.3% |  |
| Cc1ccc(C)c(N2CCN(C(=O)Cc3ccc(-n4c(=O)[nH]c5ccsc5c4=O)cc3)CC2)c1 | -46.5% |  |
| Cn1c(/C(C#N)=C/Nc2ccccn2)nc2ccccc21 | -37.2% |  |
| COC(=O)CSc1nnc(-c2ccccc2OC)o1 | 21% |  |
| CCCCCn1c(CNC(=O)CCC)nc2ccccc21 | 49.8% |  |
| CCOC(=O)c1cccc(NC(=O)CCS(=O)(=O)c2cccc3nsnc23)c1 | 32.9% |  |
| CCC(=O)N1CCN(c2cc(C)ccc2C)CC1 | 40.1% |  |
| CCNCCC(=O)N1c2ccccc2Sc2ccc(NC(=O)OCC)cc21 | -52.9% |  |
| O=C(c1ccc(S(=O)(=O)c2ccccc2Cl)c([N+](=O)[O-])c1)N1CCCCCC1 | -49.9% |  |
| Cc1ccc(N/N=C/c2ccc3c(c2)OCCO3)cc1Cl |  | active: 20 µM |
| C[C@@H]1C=C[C@](Cc2ccccc2)(C(=O)NCC2CC2)N1C(=O)c1ccccc1 | inactive: 14.6% |  |
| O=C(O)c1ccccc1OCCOCCOc1ccccc1C(=O)O | 47.6% |  |
| CNC(=O)c1cc2c(=O)n3cccc(C)c3nc2n(C(C)C)c1=N | 60% |  |
| Cc1ccc(C(=O)Nc2cnc3ccccc3c2)cc1 | -86% |  |
| COc1ccc(NC(=O)c2ccccn2)cc1 |  | active: 1.58 µM |
| COc1cccc(-c2cc(C(=O)Nc3c(C)nn(Cc4ccccc4)c3C)no2)c1 | inactive: -55% |  |
| O=C(/C(Br)=C/Nc1cc(Cl)ccc1Cl)C(F)(F)F | 31% |  |

| SMILES | activity change, positive = activation | Potency |
| --- | --- | --- |
| CN(C)/C=C/C(=O)c1cnc(-c2ccc(Cl)cc2)s1 |  | active: 10 µM |
| COc1ccccc1C(=O)N1c2ccccc2C(C)(c2ccc(Cl)cc2)CC1(C)C (stereo not given) | inactive: -54.2% |  |
| O=C(Nc1nc(-c2ccccn2)cs1)c1ccc(Br)s1 | inactive: -95.7% |  |
| COc1ccc(OC)c(NC(=O)c2sc3nc(Cc4ccccc4)cc(C(F)(F)F)c3c2N)c1 | 43% |  |
| c1ccc(-c2cc(CSc3nc4ccccc4[nH]3)on2)cc1 | -80.1% |  |
| COc1ccc(C(=O)CSc2nnc(CNC(=O)c3ccc(OC)cc3)n2C)cc1 | 21.4% |  |
| Cc1cc(=O)[nH]c(SCC2(O)C3CC4CC(C3)CC2C4)n1 (stereo not given) | 32.7% |  |
| O=C(Nc1cccc(F)c1)N1CC2(CCN(C(=O)c3ccncc3)CC2)C1 | inactive: -32.3% |  |
| CC(=O)c1ccc(N2CCN(c3ncnc4onc(-c5ccc(Cl)cc5)c34)CC2)cc1 | inactive: -35.3% |  |
| C/C(=N\N1C(=O)c2ccccc2NC1c1ccco1)c1ccccc1O (stereo not given) |  | active: 3.98 µM |
| COc1ccc(-c2c(C)nn3c(-c4ccccc4)cc(-c4ccccc4)nc23)cc1 | 36.7% |  |
| Cc1cc(=O)c2cc(Cl)ccc2[nH]1 | -33% |  |
| CCOC(=O)Cn1c(N2CCOCC2)nc2c1c(=O)[nH]c(=O)n2C | 40% |  |
| Cc1ccccc1Cn1nnc(-c2ccc3c(c2)OCO3)n1 |  | active: 3.98 µM |
| CN1C(CC(=O)c2ccccc2)CCCC1CC(O)c1ccccc1 (stereo not given) | 30.2% |  |
| CN(C)S(=O)(=O)Nc1ccc(C(=O)O)cc1 | 22% |  |
| COc1ccc(C2SCCN2S(=O)(=O)c2ccc(F)cc2)cc1OC (stereo not given) | inactive: -31.8% |  |
| N#Cc1c(/N=C/c2ccco2)sc2c1CCC2 | 37.1% |  |
| COc1ccc(-c2ccc(SCC(=O)Nc3cccc(C(C)=O)c3)nn2)cc1OC | 75% |  |
| O=C(Nc1ccc([N+](=O)[O-])cc1)N1CCCCC1 | 38.6% |  |
| CN(C)c1ccc(-c2n(C)c3ccccc3[n+]2C)cc1 | -97.1% |  |
| C/C(=N\Nc1cc(-c2ccccc2)nc(-c2ccccc2)n1)c1ccc(O)c(C)c1 | -77.4% |  |

Filtered by structure, the compounds so far containing an aryl thioether with sulfur outside any ring.

| SMILES | activity change, positive = activation | Potency |
| --- | --- | --- |
| CCOc1cc(C(=O)CSc2nnc(CNc3ccc(Cl)cc3)o2)ccc1NC(=O)CC | -68.4% |  |
| CSc1ccc(-c2ccco2)nn1 | 82% |  |
| Cc1cncn1CCc1nc2c3ccccc3nc(SCC(=O)Nc3cccc(Cl)c3)n2n1 | -55% |  |
| Cc1cccc(Sc2c([N+](=O)[O-])ncn2C)c1 | -54.9% |  |
| COC(=O)CSc1nnc(-c2ccccc2OC)o1 | 21% |  |
| c1ccc(-c2cc(CSc3nc4ccccc4[nH]3)on2)cc1 | -80.1% |  |
| COc1ccc(C(=O)CSc2nnc(CNC(=O)c3ccc(OC)cc3)n2C)cc1 | 21.4% |  |
| Cc1cc(=O)[nH]c(SCC2(O)C3CC4CC(C3)CC2C4)n1 (stereo not given) | 32.7% |  |
| COc1ccc(-c2ccc(SCC(=O)Nc3cccc(C(C)=O)c3)nn2)cc1OC | 75% |  |

More compounds

| SMILES | activity change, positive = activation | Potency |
| --- | --- | --- |
| O=C(NNS(=O)(=O)c1ccc(F)cc1)C1CC(c2cccnc2)=NO1 (stereo not given) | inactive: -7.91% |  |
| N#C/C(=C\C=C\c1ccccc1)C(=O)Nc1ccccc1 | inactive: 15.3% |  |
| COc1ccc(CCNC(=O)c2nnn(-c3ccc4c(c3)OCCO4)c2N)cc1OC | -46.2% |  |
| COC(=O)c1c(NC(NC(C)=O)C(Cl)(Cl)Cl)sc2c1CCCC2 (stereo not given) | -43.6% |  |
| CCOC(=O)c1[nH]c(COC(=O)C2CC(=O)N(Cc3ccccc3)C2)c(C(=O)OCC)c1C (stereo not given) | 31.3% |  |
| O=C(c1cnn2c(C(F)(F)F)cc(-c3ccc(Br)cc3)nc12)N1CCOCC1 | -35.6% |  |
| Cc1ccc2nc(-c3ccccc3)c(NC(=O)c3ccco3)n2c1 | inactive: -12.3% |  |
| O=C(N/N=C/c1ccccn1)c1cccs1 | inactive: -44.9% |  |
| Cc1cc(NC(=O)CSc2ccc3ccccc3c2)no1 | 36.3% |  |
| Cc1ccccc1NC(=S)N(CCN1CCOCC1)Cc1ccccc1F | 12.8% |  |
| COc1ccc(C(=O)NC(C(=O)N2CCc3ccccc32)C(C)C)cc1 (stereo not given) | 72% |  |
| O=C(O)C1C2CCC(C2)C1C(=O)Nc1nc2ccccc2s1 (stereo not given) | 39.4% |  |
| NC(=O)C1CCN(C(=O)c2cc(S(=O)(=O)N3CCOCC3)c(Cl)cc2Cl)CC1 | 55.3% |  |
| O=C(c1cc(Sc2ccc(Cl)cc2)nc2ccccc12)N1CCN(c2ccccn2)CC1 | inactive: -39.3% |  |
| CCNC(=S)N/N=C/c1sc(N2CCCCC2)nc1-c1cccs1 | 7.37% |  |
| Cc1cc(C)c(S(=O)(=O)N2CCCCC2)c(C)c1N(C)S(=O)(=O)c1ccc(Cl)cc1 | inactive: -37.2% |  |
| O=C(Nc1cc(C(=O)N2CCCC2)ccc1N1CCCC1)c1ccccc1F | 35.8% |  |
| COC(=O)C1CCN(C(=O)CCCOc2ccccc2)CC1 | 43.3% |  |
| Cc1ccc(NC(=O)Nc2ccccc2)c(Br)c1 |  | active: 12.6 µM |
| CCC1CSC(Nc2ccc(C(=O)/C=C/c3ccc(OC)c(OC)c3)cc2)=N1 (stereo not given) | inactive: -59.3% |  |
| CC(C)(C)c1ccc(S(=O)(=O)N(CCCN2CCOCC2)Cc2cccs2)cc1 | -83% |  |
| COc1ccc(-c2cn3cc(C(F)(F)F)cc(Cl)c3n2)cc1 |  | active: 2.82 µM |

Quoted at random: 3 compounds from above

| SMILES | activity change, positive = activation | Potency |
| --- | --- | --- |
| CCOC(=O)c1ccccc1OCc1cc(/C=N/n2cnnc2)ccc1OC | 17.9% |  |
| Cc1ccc(C(=O)Nc2cnc3ccccc3c2)cc1 | -86% |  |
| CCOC(=O)c1[nH]c(COC(=O)C2CC(=O)N(Cc3ccccc3)C2)c(C(=O)OCC)c1C (stereo not given) | 31.3% |  |
